Experimental findings from article PMC12046049 are described below.

Amino acid sequences for entries named in this document (tags omitted).
UniProt Q8VHX6: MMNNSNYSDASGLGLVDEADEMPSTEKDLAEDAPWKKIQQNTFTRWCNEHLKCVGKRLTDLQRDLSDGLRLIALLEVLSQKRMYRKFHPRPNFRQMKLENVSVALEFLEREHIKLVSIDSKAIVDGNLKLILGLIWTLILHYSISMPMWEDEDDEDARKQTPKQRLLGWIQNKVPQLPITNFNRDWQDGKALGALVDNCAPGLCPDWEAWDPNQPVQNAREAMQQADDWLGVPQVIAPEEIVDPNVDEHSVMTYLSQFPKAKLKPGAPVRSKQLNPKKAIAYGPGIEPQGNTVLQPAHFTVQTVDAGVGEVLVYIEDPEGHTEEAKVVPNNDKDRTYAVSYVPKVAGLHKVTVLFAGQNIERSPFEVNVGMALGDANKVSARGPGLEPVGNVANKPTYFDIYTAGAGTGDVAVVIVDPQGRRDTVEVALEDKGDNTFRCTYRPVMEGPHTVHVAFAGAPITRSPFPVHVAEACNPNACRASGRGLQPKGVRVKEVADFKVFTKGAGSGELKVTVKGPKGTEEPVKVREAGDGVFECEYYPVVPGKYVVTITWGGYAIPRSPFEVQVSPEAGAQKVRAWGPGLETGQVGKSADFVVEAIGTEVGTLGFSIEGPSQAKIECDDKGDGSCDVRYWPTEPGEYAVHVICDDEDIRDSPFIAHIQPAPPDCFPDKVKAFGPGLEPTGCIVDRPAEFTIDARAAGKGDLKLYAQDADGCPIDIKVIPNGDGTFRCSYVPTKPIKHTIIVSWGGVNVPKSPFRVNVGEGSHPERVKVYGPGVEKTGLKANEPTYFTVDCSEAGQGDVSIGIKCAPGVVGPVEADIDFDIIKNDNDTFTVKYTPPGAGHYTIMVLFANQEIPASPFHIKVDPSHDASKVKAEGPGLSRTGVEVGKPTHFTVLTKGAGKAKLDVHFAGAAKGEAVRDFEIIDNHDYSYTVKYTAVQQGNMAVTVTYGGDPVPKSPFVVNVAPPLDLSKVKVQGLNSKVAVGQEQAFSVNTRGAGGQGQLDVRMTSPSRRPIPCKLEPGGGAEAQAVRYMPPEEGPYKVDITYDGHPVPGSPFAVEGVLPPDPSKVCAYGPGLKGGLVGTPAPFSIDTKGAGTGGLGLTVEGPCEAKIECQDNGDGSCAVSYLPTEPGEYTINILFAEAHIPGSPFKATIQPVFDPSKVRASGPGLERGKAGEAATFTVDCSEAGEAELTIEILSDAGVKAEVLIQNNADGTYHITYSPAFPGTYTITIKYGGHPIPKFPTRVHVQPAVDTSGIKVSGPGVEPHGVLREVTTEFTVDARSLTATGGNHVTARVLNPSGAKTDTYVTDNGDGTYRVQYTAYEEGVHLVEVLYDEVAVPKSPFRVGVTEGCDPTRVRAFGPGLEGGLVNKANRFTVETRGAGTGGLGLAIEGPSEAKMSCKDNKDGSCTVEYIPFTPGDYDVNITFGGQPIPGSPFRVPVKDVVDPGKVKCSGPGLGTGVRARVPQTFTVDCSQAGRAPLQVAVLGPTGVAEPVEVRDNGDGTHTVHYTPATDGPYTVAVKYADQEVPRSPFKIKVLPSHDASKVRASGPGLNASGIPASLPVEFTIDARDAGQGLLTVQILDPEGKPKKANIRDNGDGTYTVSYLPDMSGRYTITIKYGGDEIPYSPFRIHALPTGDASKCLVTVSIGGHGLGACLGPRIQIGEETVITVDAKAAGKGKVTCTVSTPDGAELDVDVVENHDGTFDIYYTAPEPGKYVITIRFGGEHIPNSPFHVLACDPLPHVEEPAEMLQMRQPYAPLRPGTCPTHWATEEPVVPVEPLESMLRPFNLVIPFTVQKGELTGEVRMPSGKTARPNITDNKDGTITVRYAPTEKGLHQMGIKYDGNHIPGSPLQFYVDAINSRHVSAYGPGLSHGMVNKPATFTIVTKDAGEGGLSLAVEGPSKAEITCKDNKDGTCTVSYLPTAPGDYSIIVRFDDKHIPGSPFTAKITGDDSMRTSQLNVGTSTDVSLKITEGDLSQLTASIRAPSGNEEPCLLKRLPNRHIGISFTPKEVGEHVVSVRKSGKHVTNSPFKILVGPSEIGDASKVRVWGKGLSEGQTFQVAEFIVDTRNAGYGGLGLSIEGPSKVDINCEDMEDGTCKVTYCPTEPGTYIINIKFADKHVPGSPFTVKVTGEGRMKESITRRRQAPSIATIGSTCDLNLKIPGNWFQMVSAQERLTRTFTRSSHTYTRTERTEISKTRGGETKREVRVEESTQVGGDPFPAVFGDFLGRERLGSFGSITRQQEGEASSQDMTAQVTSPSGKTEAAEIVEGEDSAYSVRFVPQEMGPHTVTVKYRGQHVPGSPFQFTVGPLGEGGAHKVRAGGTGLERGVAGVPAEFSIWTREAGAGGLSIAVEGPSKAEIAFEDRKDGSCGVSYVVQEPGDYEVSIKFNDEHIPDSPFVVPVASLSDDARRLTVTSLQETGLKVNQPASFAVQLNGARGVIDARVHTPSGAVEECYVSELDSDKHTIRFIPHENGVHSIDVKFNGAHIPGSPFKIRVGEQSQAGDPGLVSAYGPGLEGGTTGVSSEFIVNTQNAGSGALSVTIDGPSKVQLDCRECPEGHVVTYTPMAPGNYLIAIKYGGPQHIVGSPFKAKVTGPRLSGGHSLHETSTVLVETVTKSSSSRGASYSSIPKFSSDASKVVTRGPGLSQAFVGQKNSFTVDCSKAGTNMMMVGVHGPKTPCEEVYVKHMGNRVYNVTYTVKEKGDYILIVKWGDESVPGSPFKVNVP
UniProt P35385: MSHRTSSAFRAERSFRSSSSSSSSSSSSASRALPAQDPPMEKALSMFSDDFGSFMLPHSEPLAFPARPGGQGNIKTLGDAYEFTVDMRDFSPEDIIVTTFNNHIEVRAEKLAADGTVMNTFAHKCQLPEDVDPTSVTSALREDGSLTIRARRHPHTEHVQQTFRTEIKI

The target of assay [1] is filamin C (FLNC), endogenous in mouse ventricular tissue (mouse (endogenous in ventricular tissue)) (UniProt Q8VHX6). Briefly: co-IP; anti-FLNC antibody 1899 and Protein G beads on mouse heart lysates (wild-type and MLP KO), 900 μg total protein, IP buffer with 1% Triton X-100, 0.5% NP-40; blot for HSPB7; isotype control antibody.
Assay [2] concerns the target HSPB7ACD (α-crystallin domain, residues 78-162 of isoform 2) (human) (UniProt Q9UBY9). Briefly: native MS; each HSPB7 construct alone at ~10 μM; 200 mM ammonium acetate pH 6.9 (full-length HSPB7: 1 M ammonium acetate pH 6.9); both purified.
Assay [3] concerns the target HSPB7ΔN (residues 78-175 of isoform 2) (human) (UniProt Q9UBY9). The description is as above.

Results are given in words; binding and its absence hold for the method and conditions named. For part of these data: Binding seen in cells or lysates may run through a third protein. Some results given as binding are weak or reduced against the parent protein; the word gives no strength.

Consider “HSPB7, endogenous in mouse ventricular tissue (from UniProt P35385 1-169)”, for which the binding entry in assay [1] was “binds”.

Regarding “HSPB7ACD (α-crystallin domain, residues 78-162 of isoform 2) (from UniProt Q9UBY9-2 78-162) (domain or fragment)”, the binding result in assay [2] is reported as “no binding (tested: ~10 μM)”.

As to “HSPB7ΔN (residues 78-175 of isoform 2) (from UniProt Q9UBY9-2 78-175) (domain or fragment)”, the binding result in assay [3] is “no binding (tested: ~10 μM)”.
